{"source": "PubChem BioAssay AID504834", "about": "(National Center for Advancing Translational Sciences (NCATS), 2011)", "note": "Hit rate of the full screen: of about 320,000 compounds, about 22,000 (6.9%) were called active. Inconclusive means that the source gave no clear call. Such entries were picked first, then a sample of the others. Calls come from the whole dose curve; as a rule, active = well fitted inhibition curve with a large enough effect; inconclusive = small, poorly fitted or top-dose-only effect, or another doubt; inactive = no such curve, though single readings can be large or run the other way. Potencies of inconclusive entries are doubtful fits and often do not repeat.", "data": [{"experiment": "Primary qHTS for delayed death inhibitors of the malarial parasite plastid, 96 hour incubation; note: potency is the fitted concentration of half-maximal effect", "settings": "P. falciparum luciferase reporter growth; series mostly up to 28.7 µM", "in_short": "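Erythrocytes infected with luciferase-expressing P. falciparum were dispensed at 2% hematocrit and 0.05% parasitemia (final), then incubated with compounds 96 hours at 37 C in 5% CO2. Luminescence after detection reagent addition reported growth.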", "values": [{"compound": "Cc1cccc(C(=O)N(Cc2ccc(C)o2)C2CCS(=O)(=O)C2)c1", "note": "(stereo unspecified)", "Potency": "inconclusive: 16.5 µM [inhibitor, single point]"}, {"compound": "CC(C)(C)C(=O)Nc1nnc(CCc2ccccc2)s1", "Potency": "inactive"}, {"compound": "COCCCNC(=O)CCCn1c(=O)c2ccccc2n(Cc2cccc([N+](=O)[O-])c2)c1=O", "Potency": "inconclusive: 18.5 µM [inhibitor, single point]"}, {"compound": "COc1ccc(Cl)cc1NS(=O)(=O)c1ccc(S(=O)(=O)N2CCCC2)cc1", "Potency": "inconclusive: 6.57 µM [inhibitor, partial curve, poor fit]"}, {"compound": "CN(C)c1ccc(C2CC(c3ccccc3)=Nc3nc(-c4ccccc4)cn32)cc1", "note": "(stereo unspecified)", "Potency": "active: 5.22 µM"}, {"compound": "O=C(Cc1cc(=O)[nH][nH]1)N/N=C/c1c(Cl)cccc1Cl", "Potency": "inconclusive: 18.5 µM [inhibitor, single point]"}, {"compound": "CCOc1ccc(N(CC(=O)Nc2cc(C)ccc2C)S(=O)(=O)c2c(C)[nH]c(=O)[nH]c2=O)cc1", "Potency": "inactive"}, {"compound": "O=C(O)CN1C(=O)C2C3CC(C2C1=O)C1C(c2ccc(F)cc2)c2sc(=O)[nH]c2SC31", "note": "(stereo unspecified)", "Potency": "inactive"}, {"compound": "CCCCC(=O)NN(C)c1nc(-c2ccccc2)nnc1C(F)(F)F", "Potency": "inactive"}, {"compound": "COc1ccc(-c2cc(C(F)(F)F)n3nc(C(=O)NCCCn4ccnc4)cc3n2)cc1", "Potency": "inactive"}, {"compound": "COc1ccc(CCN=Cc2ccccc2O)cc1OC", "Potency": "inconclusive: 14.7 µM [inhibitor, single point]"}, {"compound": "O=C(CCc1nnc(Cc2c[nH]c3ccccc23)o1)NC(C1CC1)C1CC1", "Potency": "inactive"}, {"compound": "CCC(=O)Nc1ccc(-c2ccc(N3CCCCC3)nn2)cc1", "Potency": "inconclusive: 18.5 µM [inhibitor, single point]"}, {"compound": "Nc1ccc(C(=O)N/N=C/c2cn(Cc3ccc(F)cc3)c3ccccc23)cc1", "Potency": "inconclusive: 18.5 µM [inhibitor, single point]"}, {"compound": "COc1ccccc1N1CCN(C(=O)c2ccccc2Oc2ccccc2)CC1", "Potency": "inconclusive: 10.4 µM [inhibitor, single point]"}, {"compound": "Cc1ccc(NC(=O)CCNC(=O)c2ccccc2Cl)cc1S(=O)(=O)N1CCOCC1", "Potency": "inconclusive: 11.7 µM [inhibitor, single point]"}, {"compound": "O=C(NCCCc1ccc(F)cc1)C1CCC(=O)N(CC2CCCCC2)C1", "note": "(stereo unspecified)", "Potency": "inactive"}, {"compound": "CC1(C)C(=O)NCCN1C(=O)CCC(=O)O", "Potency": "inconclusive: 11.7 µM [inhibitor, single point]"}, {"compound": "Cc1cccc(NC(=O)CSc2ccc(-c3cccnc3)nn2)c1", "Potency": "active: 11.7 µM"}, {"compound": "CC1CCN(CCCNC(=O)C2CCC(CNS(=O)(=O)c3cccc4nsnc34)CC2)CC1", "note": "(stereo unspecified)", "Potency": "inconclusive: 13.1 µM [inhibitor, single point]"}, {"compound": "CCS(=O)(=O)N1CCC(C(=O)NCc2ccc(OC)cc2)CC1", "Potency": "active: 5.86 µM"}, {"compound": "CC(Sc1nc(-c2ccccc2)cc(C(F)(F)F)n1)C(=O)Nc1sc2c(c1C#N)CCC2", "note": "(stereo unspecified)", "Potency": "inconclusive: 0.0329 µM [inhibitor, full curve, poor fit]"}, {"compound": "CCN(CC(=O)NCc1ccc(Cl)cc1)C(=O)CCc1ccccc1O", "Potency": "inactive"}, {"compound": "C[C@H](/C=C/[C@@]1(O)[C@H](C)C[C@H](O)CC1(C)C)O[C@@H]1O[C@H](CO)[C@@H](O)[C@H](O)[C@H]1O", "Potency": "inconclusive: 11.7 µM [inhibitor, single point]"}, {"compound": "Cn1c(-c2sccc2OCc2ccc(Cl)cc2Cl)n[nH]c1=S", "Potency": "inconclusive: 6.57 µM [inhibitor, partial curve, poor fit]"}, {"compound": "CCN(CC)c1ccc(/C=N/n2c(C)nc3ccccc3c2=O)cc1", "Potency": "inactive"}, {"compound": "CCOC(=O)/C(=C\\c1ccc([N+](=O)[O-])cc1)C(=O)c1cc(C(C)=O)c(Nc2ccccc2)s1", "Potency": "inconclusive: 11.7 µM [inhibitor, single point]"}, {"compound": "Nc1sc2c(c1C(=O)NCCc1ccccc1)CCC2", "Potency": "inactive"}, {"compound": "CCC(C)Oc1nc(C)cc(C)c1S(=O)(=O)c1ccccc1C", "note": "(stereo unspecified)", "Potency": "inconclusive: 10.4 µM [inhibitor, single point]"}, {"compound": "CC(=O)c1sc(NC(=O)CSC(C)C(=O)Nc2cc(C)on2)nc1-c1ccccc1", "note": "(stereo unspecified)", "Potency": "inconclusive: 10.4 µM [inhibitor, single point]"}, {"compound": "C[C@H]1CN=C(N(C)C)N1CCCC1CCCCC1", "Potency": "inactive"}, {"compound": "Cc1ccc(C(=O)NCC(=O)OCC(=O)c2ccccc2)s1", "Potency": "inactive"}, {"compound": "Cc1cc(C(=O)Nc2ccccc2N2CCOCC2)ccc1[N+](=O)[O-]", "Potency": "inconclusive: 18.5 µM [inhibitor, single point]"}, {"compound": "Cc1noc(C)c1COc1ccc(C(=O)N(C)CCOc2ccccc2)cc1", "Potency": "inconclusive: 18.5 µM [inhibitor, single point]"}, {"compound": "COC(=O)c1cc2c(ccn2-c2ccc(F)cc2)n1Cc1ccc(OC(C)=O)cc1", "Potency": "inconclusive: 18.5 µM [inhibitor, single point]"}, {"compound": "COc1ccc(F)cc1C(=O)C1CCCN(C(=O)c2ccccc2N(C)C)C1", "note": "(stereo unspecified)", "Potency": "inconclusive: 10.4 µM [inhibitor, single point]"}, {"compound": "CN(Cc1ccc(OCC(O)CN(C)Cc2ccccc2)cc1)Cc1nccn1C", "note": "(stereo unspecified)", "Potency": "inconclusive: 14.7 µM [inhibitor, partial curve]"}, {"compound": "CCN(CC)S(=O)(=O)c1cc(NC(=O)C2CC(=O)N(Cc3ccccc3)C2)ccc1Cl", "note": "(stereo unspecified)", "Potency": "inconclusive: 11.7 µM [inhibitor, single point]"}, {"compound": "CN1CCN(CCOC2Cc3ccccc3Sc3ccc(Cl)cc32)CC1", "note": "(stereo unspecified)", "Potency": "inconclusive: 18.5 µM [inhibitor, single point]"}, {"compound": "Cc1cccc(C(=O)O/N=C(\\N)c2ccccn2)c1", "Potency": "inconclusive: 18.5 µM [inhibitor, single point]"}, {"compound": "O=C1CCC(C(=O)N2CCc3ccccc3C2)CN1CCCN1CCOCC1", "note": "(stereo unspecified)", "Potency": "inconclusive: 18.5 µM [inhibitor, single point]"}, {"compound": "O=C(O)CSc1nc2ccccc2[nH]1", "Potency": "inconclusive: 18.5 µM [inhibitor, single point]"}, {"compound": "CCNC(=S)NNC(=O)CCc1nc2cc(Cl)ccc2n(Cc2ccccc2)c1=O", "Potency": "active: 5.86 µM"}, {"compound": "Cc1nn(C)c(Cl)c1CN1CCC(Oc2ccc(C(=O)N3CCCC3)cc2)CC1", "Potency": "inactive"}, {"compound": "Cc1cc2[nH]c3c(c[n+](C)c4ccccc34)c2cc1C", "Potency": "inconclusive: 0.37 µM [inhibitor, full curve, poor fit]"}, {"compound": "O=[N+]([O-])c1cc([N+](=O)[O-])c(Oc2c(F)cccc2F)cc1NN1CCCCC1", "Potency": "inconclusive: 0.147 µM [inhibitor, full curve, poor fit]"}, {"compound": "Nc1nc(-c2ccccc2)cs1", "Potency": "inactive"}, {"compound": "COc1cccc(CSc2nnc(-c3ccc(F)cc3)o2)c1", "Potency": "inconclusive: 18.5 µM [inhibitor, single point]"}, {"compound": "C[C@]12CCC(OC(=O)CCC(=O)O)CC1=CCC1C2CC[C@]2(C)C(=O)CCC12", "note": "(stereo partly specified)", "Potency": "inconclusive: 16.5 µM [inhibitor, single point]"}, {"compound": "O=C1[C@H]2[C@H]3[C@H](O)[C@H](O)C/C(=N\\OC[C@@H](O)COCc4ccco4)[C@@H]3CC[C@H]2C(=O)N1c1ccc(F)cc1F", "Potency": "inconclusive: 18.5 µM [inhibitor, single point]"}, {"compound": "CCCCOc1ccc(Cc2cnc(N)nc2N)cc1", "Potency": "inconclusive: 18.5 µM [inhibitor, single point]"}, {"compound": "CN(C)CCCN1c2ccccc2Sc2ccc(C(F)(F)F)cc21", "Potency": "active: 15.1 µM"}, {"compound": "OC1CCC(Nc2ncnc3sccc23)CC1", "note": "(stereo unspecified)", "Potency": "inactive"}, {"compound": "Oc1ccc2oc3c(c2c1/C=N/n1cnnc1)CCCC3", "Potency": "inconclusive: 6.57 µM [inhibitor, partial curve, poor fit]"}, {"compound": "Cc1cc(C)c(C(CC(=O)c2cccs2)C(C#N)C#N)c(C)c1", "note": "(stereo unspecified)", "Potency": "inactive"}, {"compound": "N#CCSc1ncnc2c1cnn2CCO", "Potency": "inconclusive: 18.5 µM [inhibitor, single point]"}, {"compound": "CCC(C)c1ccc(NC(=O)C/C(C)=N/NC(=O)c2cnccn2)cc1", "note": "(stereo unspecified)", "Potency": "inconclusive: 1.31 µM [inhibitor, partial curve, poor fit]"}, {"compound": "O=C(NCc1ccc(Cl)cc1)c1ccc2ccccc2n1", "Potency": "inactive"}, {"compound": "O=C(CC1SC(=Nc2ccccc2)N(CCCO)C1=O)Nc1ccc(Cl)cc1", "note": "(stereo unspecified)", "Potency": "inconclusive: 18.5 µM [inhibitor, partial curve, poor fit]"}, {"compound": "CC1CN(S(=O)(=O)c2cccc(C(=O)N(CCc3ccccc3)Cc3ccccc3)c2)CC(C)O1", "note": "(stereo unspecified)", "Potency": "inconclusive: 0.828 µM [inhibitor, full curve, poor fit]"}, {"compound": "CC(=O)Nc1ccc(C2Nc3cc(C)c(C)cc3NC3=C2C(=O)CC(C)(C)C3)cc1", "note": "(stereo unspecified)", "Potency": "active: 8.28 µM"}, {"compound": "O=C(NCCC(=O)N1CCCCC1)c1ccc(Br)cc1", "Potency": "inactive"}, {"compound": "Cc1ccc(NC(=O)C(C)OC(=O)c2ccc(Cl)nc2)cc1S(=O)(=O)N1CCOCC1", "note": "(stereo unspecified)", "Potency": "inactive"}, {"compound": "Cc1nc(-c2cccc(NC(=O)c3ccco3)c2)cs1", "Potency": "inactive"}, {"compound": "Cc1c(NC(=O)c2ccc(Br)s2)c(=O)n(-c2ccccc2)n1C", "Potency": "inconclusive: 8.28 µM [inhibitor, partial curve]"}, {"compound": "O=C(Nc1cnn(Cc2c(Cl)cccc2Cl)c1)c1ccc([N+](=O)[O-])cc1", "Potency": "active: 13.1 µM"}, {"compound": "Cc1csc(SCc2nnc(-c3ccc(Cl)cc3)o2)n1", "Potency": "inactive"}, {"compound": "CCNc1nc2nonc2nc1NCC", "Potency": "inconclusive: 9.28 µM [inhibitor, partial curve]"}, {"compound": "COc1cc(/C=N/n2c(C)n[nH]c2=S)ccc1OCc1ccccc1", "Potency": "inconclusive: 0.0522 µM [inhibitor, partial curve, poor fit]"}, {"compound": "COc1ccc(-c2csc(NC(=O)CSc3ccc(Br)cc3)n2)c(OC)c1", "Potency": "inconclusive: 18.5 µM [inhibitor, single point]"}, {"compound": "CCOc1cc(C(=O)Nc2ccc(C)cc2C)ccc1OCC(=O)N1CCCCC1", "Potency": "inconclusive: 18.5 µM [inhibitor, single point]"}]}]}
